Experimental data: publication PMC6563844, “Identification and in vivo Efficacy Assessment of Approved Orally Bioavailable Human Host Protein-Targeting Drugs With Broad Anti-influenza A Activity” (Frontiers in Immunology, 2019)

Test system: H1N1 A/Puerto Rico/8/34 (PR8)

Q: For `NCCCC(O)(P(=O)(O)O)P(=O)(O)O` [Alendronate], which “toxicity in the screen” value is on record?
A: pronounced toxicity
